Measured values from PubChem BioAssay AID1347076 (National Center for Advancing Translational Sciences (NCATS), 2019).
In all, about 400,000 compounds went through this assay and about 13,000 (3.2%) were called active. This list was built around the results that the source calls inconclusive (neither active nor inactive); the mix of calls is not that of the screen. Calls come from the whole dose curve; as a rule, active = well fitted cell-killing curve with a large enough effect; inconclusive = small, poorly fitted or top-dose-only effect, or effect the other way; inactive = flat fitted curve, though single readings scatter. A potency beside an inconclusive call is a rough fit, not a confirmed value.

assay: qHTS assay for MDR1-selective chemotherapeutics: Primary screen using the drug-selected MDR subline cells KB-V1; conditions: KB-V1 MDR cells viability, CellTiter-Glo, 72 h; activity change, negative = cytotoxicity: at 46.1 µM (top of the series); note: nearly all actives have a fitted effect of over 60% in size
Method in brief: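 Potencies derive from concentration-effect curves fitted to normalized luminescence (CellTiter-Glo) of KB-V1 cells treated for 72 h at 37 degrees C in phenol-red-free DMEM containing 10% FBS.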
% is set by controls: 0 for no effect and ±100 for the full control effect; potency is the fitted concentration of half-maximal effect.

For CSc1n[nH]c2nc3c(c(=O)n12)C1(CCCCC1)Cc1ccccc1-3, which Potency is on record?
The Potency was inconclusive: 0.0058 µM [rising, full curve, poor fit].

For CN(C)c1ccc(CNC(=O)CCCn2ccc3cc(S(=O)(=O)N4CCCC4)ccc32)cc1, which Potency is on record?
Its Potency is inconclusive: 29.1 µM [cytotoxic, single point].

For N#Cc1ccc(C(=O)OCC(=O)NC(=O)NCc2ccccc2)cc1, which Potency is on record?
The Potency was “inactive”.

With CC(NC(=S)NC1CCCCC1)c1ccccc1 (stereo not drawn) as the compound, how does the Potency read?
The Potency was inconclusive: 11.6 µM [cytotoxic, partial curve].

For COc1cc(C(=O)N(C)C2CCCN(Cc3ccccc3F)C2)cc(OC)c1OC (stereo not drawn), which Potency is on record?
The Potency was inconclusive: 7.31 µM [cytotoxic, partial curve].

Which Potency does the source give for COc1ccccc1N1CCN(C(=O)c2cn(C)c3ccc(S(=O)(=O)N4CCOCC4)cc3c2=O)CC1 here?
The Potency was inconclusive: 29.1 µM [rising, single point].

For COc1ccc(CCN2CCC(CNC(=O)c3cnn(-c4ccccc4)c3C3CCN(C(=O)OC(C)(C)C)CC3)CC2)cc1, which Potency is on record?
Its Potency is inconclusive: 29.1 µM [cytotoxic, single point].

With CCOc1ccccc1NS(=O)(=O)c1ccc2c(c1)n(C)c(=O)c(=O)n2C as the compound, how does the Potency read?
Its Potency is inconclusive: 23.1 µM [cytotoxic, partial curve, poor fit].

With Cc1ccc(C(=O)CNc2ccc(Cl)cc2)cc1 as the compound, how does the activity change, negative = cytotoxicity read?
The activity change, negative = cytotoxicity was inconclusive: 4.3%.

Which Potency does the source give for CC1CN(S(=O)(=O)c2cccc(C(=O)N(C)C3CCCCC3)c2)CC(C)O1 (stereo not drawn) here?
Its Potency is inconclusive: 14.6 µM [cytotoxic, partial curve].

Which activity change, negative = cytotoxicity does the source give for CC(=O)c1c(C)[nH]c(C(=O)COC(=O)C2CC2)c1C here?
The activity change, negative = cytotoxicity was inconclusive: 4.57%.

For Cc1ccc(S(=O)(=O)n2nc(-c3ccc(Cl)cc3)nc2NCc2ccco2)cc1, which Potency is on record?
Its Potency is inconclusive: 18.4 µM [cytotoxic, single point].

For CCOc1cc2c(cc1OCC)C(c1c(F)cccc1Cl)CC(=O)N2 (stereo not drawn), which Potency is on record?
The Potency was “inactive”.

With COc1ccc(CCNS(=O)(=O)c2csc(C(N)=O)c2)cc1OC as the compound, how does the Potency read?
Its Potency is inconclusive: 11.6 µM [rising, partial curve, poor fit].

With COc1ccc(CCNC(=O)CCNC(=O)c2ccco2)cc1 as the compound, how does the Potency read?
Its Potency is inconclusive: 32.6 µM [cytotoxic, single point].

For CCN(CC(=O)NCc1ccc(Cl)cc1)C(=O)/C=C/c1cccs1, which Potency is on record?
The Potency was inconclusive: 8.2 µM [cytotoxic, partial curve].

Which Potency does the source give for CCSc1nnc(NC(=O)C(C)C)s1 here?
Its Potency is inconclusive: 2.06 µM [cytotoxic, full curve].

With CC1CCN(C(=O)c2ccc(S(=O)(=O)Cc3ccccc3F)c([N+](=O)[O-])c2)CC1 as the compound, how does the Potency read?
The Potency was inconclusive: 0.651 µM [cytotoxic, full curve, poor fit].

Which Potency does the source give for COC(=O)c1cc(NC(=O)CCc2c(C)nc3cc(-c4ccccc4)nn3c2C)cc(C(=O)OC)c1 here?
The Potency was “inactive”.

Which Potency does the source give for Cc1c([N+](=O)[O-])cc(S(=O)(=O)Nc2ccncc2)cc1[N+](=O)[O-] here?
Its Potency is inconclusive: 29.1 µM [rising, single point].

Which Potency does the source give for COc1cc(C2C(C(=O)Nc3ccccc3)=C(C)Nc3nc(SCc4ccccc4F)nn32)cc(OC)c1OC (stereo not drawn) here?
Its Potency is inconclusive: 9.2 µM [rising, partial curve, poor fit].

For Cc1cc(=O)oc2cc(OCC(=O)NCCCn3ccnc3)ccc12, which activity change, negative = cytotoxicity is on record?
The activity change, negative = cytotoxicity was inconclusive: -1.97%.

Which Potency does the source give for COc1cc(Cl)c(C)cc1NC(=O)CN1C(=O)C2CCCCC2C1=O (stereo not drawn) here?
Its Potency is active: 23.1 µM.

Which Potency does the source give for CCOC(=O)c1cccc(NC(=O)Nc2ccc(OCC)cc2)c1 here?
The Potency was inconclusive: 14.6 µM [cytotoxic, partial curve].

With C#CCNC(=O)C[C@@H]1C[C@@]2(C(=O)OCC)CCCC=C2N(CCCCCCCC)C1=O as the compound, how does the Potency read?
Its Potency is inconclusive: 8.2 µM [cytotoxic, partial curve].

With CCCCCCC1CCC(C(=O)NC(CCSC)C(=O)NC(C(=O)OC)C(C)C)CC1 (stereo not drawn) as the compound, how does the Potency read?
The Potency was “inactive”.

For Cc1sc2c(c1C)c(=O)n(-c1ccc(Cl)cc1)c(=O)n2Cc1c(F)cccc1Cl, which Potency is on record?
Its Potency is “inactive”.

Which Potency does the source give for CCSCCOC(=O)C1=C(C)NC(=O)NC1c1cccc(OC)c1OC (stereo not drawn) here?
Its Potency is inconclusive: 20.6 µM [cytotoxic, partial curve].

With Cc1c(C(c2ccccc2O)c2c(C)n(C)n(-c3ccccc3)c2=O)c(=O)n(-c2ccccc2)n1C as the compound, how does the Potency read?
The Potency was inconclusive: 32.6 µM [cytotoxic, single point].

Which Potency does the source give for Cc1cccc(-n2nnnc2SCC(=O)NCC2CCCO2)c1 (stereo not drawn) here?
Its Potency is inconclusive: 0.58 µM [rising, full curve, poor fit].

For CC(C)CCNC(=O)c1ccc2c(c1)N(Cc1ccccc1F)C(=O)c1ccccc1S2=O (stereo not drawn), which Potency is on record?
Its Potency is “inactive”.

For O=C(CCc1nnc2ccc(NCc3ccccc3Cl)nn12)NCC1CCN(C2CCCC2)C1 (stereo not drawn), which Potency is on record?
Its Potency is inconclusive: 29.1 µM [rising, single point].

With Cc1ccccc1NC(=O)C1CCN(C(=O)N2CCOc3ccccc32)CC1 as the compound, how does the Potency read?
Its Potency is inconclusive: 16.4 µM [rising, single point].

For Cc1ccc(-c2c[n+]3c(n2-c2ccccc2)SCC3)cc1, which Potency is on record?
The Potency was “inactive”.

For O=C(NCc1ccccc1)C(c1ccc(F)cc1)N(C(=O)c1csnn1)C1CC1 (stereo not drawn), which Potency is on record?
Its Potency is inconclusive: 8.2 µM [cytotoxic, partial curve, poor fit].

Which Potency does the source give for COc1cccc(CN(C)C(=O)c2cc(S(=O)(=O)NC3CCCCC3)ccc2C)c1 here?
Its Potency is “inactive”.

For COc1cccc(-n2ccnc2SCC(=O)Nc2cc(C)on2)c1, which Potency is on record?
The Potency was inconclusive: 9.2 µM [cytotoxic, partial curve, poor fit].

Which Potency does the source give for Cc1cccc(-c2nc(CS(=O)CC(=O)NCc3ccc(Cl)cc3)c(C)o2)c1 (stereo not drawn) here?
The Potency was “inactive”.

For O=C1CC2(CCN(C(=O)c3ccc(Br)cc3)CC2)Oc2ccccc21, which Potency is on record?
Its Potency is inconclusive: 23.1 µM [cytotoxic, single point].

For CCCn1c(SC(C)C(=O)NC2CCCC2)n[nH]c1=O (stereo not drawn), which Potency is on record?
The Potency was “inactive”.

For O=C(NCCc1ccccc1)c1ccc(CSc2nc3cccnc3n2Cc2ccccc2F)cc1, which Potency is on record?
Its Potency is inconclusive: 0.116 µM [cytotoxic, full curve, poor fit].

With O=C(CN1C(=O)NC2(CCc3ccccc32)C1=O)c1ccccc1 (stereo not drawn) as the compound, how does the Potency read?
Its Potency is “inactive”.

For CC(C)(C)NC(=O)NC(=O)CSc1ncc(C(F)(F)F)cc1Cl, which Potency is on record?
Its Potency is active: 13 µM.

With CCN1CCN(c2ccc(S(=O)(=O)N3CCCC3)cn2)CC1 as the compound, how does the Potency read?
The Potency was “inactive”.

For O=C1SCC(c2ccccc2)=NN1Cc1ccccc1, which Potency is on record?
Its Potency is inconclusive: 20.6 µM [cytotoxic, single point].

Which Potency does the source give for CCOC(=O)c1c(-c2ccccc2)csc1NC(=O)CCN1C(=O)c2ccccc2C1=O here?
The Potency was “inactive”.

With COc1cc(/C=C2/SC(=O)N(Cc3ccccc3Cl)C2=O)ccc1OCc1ccncc1 as the compound, how does the Potency read?
The Potency was inconclusive: 18.4 µM [cytotoxic, single point].

For COc1cc(NC(=O)c2cc(C)on2)cc(C(=O)Nc2cccc(C(F)(F)F)c2)c1, which Potency is on record?
The Potency was “inactive”.

For Cc1nn(Cc2ccc(Cl)cc2)c(C)c1NC(=O)CCCn1nc([N+](=O)[O-])c(Cl)c1C, which Potency is on record?
The Potency was inconclusive: 8.2 µM [cytotoxic, partial curve].

For Cc1ccc(C)c(N2CCN(C(=O)CCNS(=O)(=O)c3ccc4c(c3)oc(=O)n4C)CC2)c1, which Potency is on record?
The Potency was “inactive”.

With COc1ccc2c(c1)CCN=C2Cc1ccc(OC)c(OC)c1 as the compound, how does the Potency read?
The Potency was inconclusive: 18.4 µM [cytotoxic, partial curve, poor fit].

For COc1cc(C2Nc3cccc4cccc(c34)N2)ccc1O, which Potency is on record?
The Potency was inconclusive: 11.6 µM [cytotoxic, partial curve, poor fit].

Which Potency does the source give for O=C(CSc1nc2ccccc2[nH]1)N1c2ccccc2Sc2ccccc21 here?
The Potency was active: 11.6 µM.

For O=C(c1cc([N+](=O)[O-])cc([N+](=O)[O-])c1)N(Cc1nnc(-c2ccccc2Cl)o1)C1CC1, which Potency is on record?
The Potency was inconclusive: 5.17 µM [cytotoxic, partial curve, poor fit].

Which Potency does the source give for CCOC(=O)c1nc(C)c(C(C)=O)s1 here?
The Potency was inconclusive: 13 µM [cytotoxic, partial curve].

With O=C(Nc1nnc(-c2ccco2)o1)c1ccc(Cl)cc1 as the compound, how does the Potency read?
Its Potency is inconclusive: 29.1 µM [cytotoxic, single point].

With Nc1ccc(/C=C/c2nc3ccccc3s2)cc1 as the compound, how does the Potency read?
Its Potency is inconclusive: 18.4 µM [rising, single point].

Which Potency does the source give for CC1CN(S(=O)(=O)c2cc(C(=O)N3CCCCC3C)ccc2Cl)CC(C)O1 (stereo not drawn) here?
The Potency was “inactive”.

With CCOC(=O)c1c(C)oc2nc(C)nc(NCC3CCN(Cc4ccccc4C)CC3)c12 as the compound, how does the Potency read?
The Potency was “inactive”.

Which Potency does the source give for Cc1ccc2nc(-c3cccc(NC(=O)c4cccc5c(Cl)cccc45)c3)oc2c1 here?
The Potency was “inactive”.

For COc1ccc2nc(SCC(=O)NCC3CCCO3)c(C#N)cc2c1 (stereo not drawn), which Potency is on record?
The Potency was inconclusive: 23.1 µM [cytotoxic, single point].

With COc1ccc(CCCC(=O)N/N=C/c2cccc(OC)c2O)cc1C as the compound, how does the Potency read?
The Potency was inconclusive: 18.4 µM [cytotoxic, single point].

Which Potency does the source give for NC1=NC[C@H](Cc2ccc(O)cc2)N1CCc1cc(C(F)(F)F)cc(C(F)(F)F)c1 here?
Its Potency is “inactive”.

With COC(=O)N(C)C[C@H]1OCc2cnnn2CCCC(=O)N([C@@H](C)CO)C[C@@H]1C as the compound, how does the Potency read?
The Potency was inconclusive: 29.1 µM [rising, partial curve, poor fit].

Which Potency does the source give for CCOC(=O)C1CCCN(c2ncnc3c2oc2ccccc23)C1 (stereo not drawn) here?
The Potency was inconclusive: 29.1 µM [cytotoxic, single point].

For CCN(Cc1ccccc1)C(=O)CN1C(=S)NC(C)(C)CC1C (stereo not drawn), which Potency is on record?
Its Potency is inconclusive: 29.1 µM [cytotoxic, single point].

With O=C(CCSc1nnc(-c2ccncc2)o1)Nc1ccc(Cl)cc1 as the compound, how does the Potency read?
Its Potency is “inactive”.

For COc1cc2nc(N3CCN(c4cc(C)ccc4C)CC3)nc(N)c2cc1OC, which Potency is on record?
Its Potency is inconclusive: 29.1 µM [cytotoxic, single point].
